Results published in PMC9374197.
Results are given in words; binding and its absence hold for the method and conditions named. Binding seen in cells or lysates may run through a third protein. Some entries that bind do so weakly or less than the wild type. For some assays here: Tags and fused reporters may be left off the sequences shown.

Sequences of proteins named here, by UniProt entry; tags and fusion partners are left off. Residues count along the entry.
UniProt Q9NZQ7, residues 19-290: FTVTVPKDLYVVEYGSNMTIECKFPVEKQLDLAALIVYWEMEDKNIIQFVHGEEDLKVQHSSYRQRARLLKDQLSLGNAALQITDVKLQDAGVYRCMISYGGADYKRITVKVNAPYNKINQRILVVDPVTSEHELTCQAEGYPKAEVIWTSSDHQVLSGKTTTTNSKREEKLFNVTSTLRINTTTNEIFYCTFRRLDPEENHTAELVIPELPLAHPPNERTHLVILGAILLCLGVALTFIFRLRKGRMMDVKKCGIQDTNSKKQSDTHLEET

Assays:
[1] = biological target: programmed death ligand-1 (PD-L1) (human (endogenous in HepG2)) (UniProt Q9NZQ7); test: co-IP; endogenous proteins in HepG2 whole-cell lysate (NP40 buffer: 1% NP40, 150 mM NaCl, 40 mM Tris pH 7.5); PD-L1 immuno-complex captured on protein A/G beads, blot for RNF125
Flag-PD-L1 = Flag-PD-L1 (UniProt Q9NZQ7); test: co-IP; HEK293T co-transfected with HA-RNF125 and Flag-PD-L1 or Flag-vector; anti-Flag immunoprecipitate blotted with anti-HA; NP40 buffer (1% NP40, 150 mM NaCl, 40 mM Tris pH 7.5)

Row | binding (Flag-PD-L1) | Binder | binding [1]
1 | – | RNF125 (protein, UniProt Q96EQ8 1-232) MGSVLSTDSGKSAPASATARALERRRDPELPVTSFDCAVCLEVLHQPVRTRCGHVFCRSCIATSLKNNKWTCPYCRAYLPSEGVPATDVAKRMKSEYKNCAECDTLVCLSEMRAHIRTCQKYIDKYGPLQELEETAARCVCPFCQRELYEDSLLDHCITHHRSERRPVFCPLCRLIPDENPSSFSGSLIRHLQVSHTLFYDDFIDFNIIEEALIRRVLDRSLLEYVNHSNTT | binds
2 | binds | HA-RNF125 (protein, UniProt Q96EQ8 1-232) MGSVLSTDSGKSAPASATARALERRRDPELPVTSFDCAVCLEVLHQPVRTRCGHVFCRSCIATSLKNNKWTCPYCRAYLPSEGVPATDVAKRMKSEYKNCAECDTLVCLSEMRAHIRTCQKYIDKYGPLQELEETAARCVCPFCQRELYEDSLLDHCITHHRSERRPVFCPLCRLIPDENPSSFSGSLIRHLQVSHTLFYDDFIDFNIIEEALIRRVLDRSLLEYVNHSNTT | –
